Results taken from paper PMC12782253.
These are yes or no findings as the source states them, for the method shown. In cells and extracts the contact can be indirect. Some entries that bind do so weakly or less than the wild type.

Sequences of proteins named here, by UniProt entry; tags and fusion partners are left off.
UniProt O95235: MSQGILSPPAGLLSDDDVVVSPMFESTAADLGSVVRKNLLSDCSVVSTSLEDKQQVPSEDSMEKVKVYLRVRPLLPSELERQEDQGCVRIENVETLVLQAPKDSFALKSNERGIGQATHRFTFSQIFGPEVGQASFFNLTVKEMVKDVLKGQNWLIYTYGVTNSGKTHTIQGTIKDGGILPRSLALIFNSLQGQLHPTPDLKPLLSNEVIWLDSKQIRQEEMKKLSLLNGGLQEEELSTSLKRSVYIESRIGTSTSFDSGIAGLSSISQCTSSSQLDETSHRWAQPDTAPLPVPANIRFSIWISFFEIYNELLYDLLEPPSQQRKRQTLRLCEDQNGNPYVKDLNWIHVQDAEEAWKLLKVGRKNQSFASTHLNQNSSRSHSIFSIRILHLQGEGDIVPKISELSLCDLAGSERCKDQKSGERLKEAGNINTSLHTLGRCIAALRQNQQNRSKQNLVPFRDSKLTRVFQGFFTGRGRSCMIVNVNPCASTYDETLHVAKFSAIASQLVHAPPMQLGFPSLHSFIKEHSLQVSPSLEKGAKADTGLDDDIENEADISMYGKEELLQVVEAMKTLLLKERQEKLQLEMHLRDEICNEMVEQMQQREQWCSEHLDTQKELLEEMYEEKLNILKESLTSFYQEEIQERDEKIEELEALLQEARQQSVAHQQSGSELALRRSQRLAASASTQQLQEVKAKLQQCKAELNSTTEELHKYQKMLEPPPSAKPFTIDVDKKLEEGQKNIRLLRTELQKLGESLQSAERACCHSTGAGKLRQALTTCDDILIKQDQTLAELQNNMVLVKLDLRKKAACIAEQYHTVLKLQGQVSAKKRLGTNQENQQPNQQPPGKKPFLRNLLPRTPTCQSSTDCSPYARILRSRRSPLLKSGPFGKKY
UniProt O43683: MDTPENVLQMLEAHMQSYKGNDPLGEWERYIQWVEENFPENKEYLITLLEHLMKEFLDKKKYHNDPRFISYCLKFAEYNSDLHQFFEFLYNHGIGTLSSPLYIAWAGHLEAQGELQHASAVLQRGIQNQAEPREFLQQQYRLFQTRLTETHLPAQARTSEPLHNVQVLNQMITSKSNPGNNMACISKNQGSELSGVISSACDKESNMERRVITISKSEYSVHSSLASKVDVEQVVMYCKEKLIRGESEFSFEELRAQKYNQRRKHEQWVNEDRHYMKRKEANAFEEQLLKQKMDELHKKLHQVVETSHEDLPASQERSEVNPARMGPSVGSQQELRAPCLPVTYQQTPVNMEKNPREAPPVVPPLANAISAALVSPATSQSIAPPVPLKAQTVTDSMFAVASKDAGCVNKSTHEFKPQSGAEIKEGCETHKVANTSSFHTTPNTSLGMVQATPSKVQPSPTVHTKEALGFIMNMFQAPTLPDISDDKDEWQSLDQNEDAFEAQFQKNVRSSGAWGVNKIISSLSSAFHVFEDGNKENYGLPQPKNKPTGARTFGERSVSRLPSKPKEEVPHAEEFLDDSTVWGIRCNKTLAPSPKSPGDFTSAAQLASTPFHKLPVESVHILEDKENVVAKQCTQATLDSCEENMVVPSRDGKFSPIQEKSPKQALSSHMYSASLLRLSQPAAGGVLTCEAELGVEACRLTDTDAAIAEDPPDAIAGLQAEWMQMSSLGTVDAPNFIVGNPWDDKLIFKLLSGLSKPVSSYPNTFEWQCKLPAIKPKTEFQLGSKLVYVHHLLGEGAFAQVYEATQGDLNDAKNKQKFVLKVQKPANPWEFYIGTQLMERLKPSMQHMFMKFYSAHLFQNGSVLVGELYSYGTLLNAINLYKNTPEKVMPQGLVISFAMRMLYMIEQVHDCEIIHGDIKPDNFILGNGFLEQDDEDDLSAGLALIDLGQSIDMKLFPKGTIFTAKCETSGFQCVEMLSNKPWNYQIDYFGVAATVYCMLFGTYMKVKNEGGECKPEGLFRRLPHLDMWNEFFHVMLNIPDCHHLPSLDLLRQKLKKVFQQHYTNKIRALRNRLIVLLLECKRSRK

Molecular target: Kinesin family member 20A (human (endogenous in CaSki and C-33A)) (UniProt O95235)
Test: co-IP; CaSki and C-33A cell lysates (500 ug, RIPA lysis buffer: 50 mM Tris pH 7.4, 150 mM NaCl, 1% Triton X-100, 1% sodium deoxycholate, 0.1% SDS) incubated overnight at 4°C with 2 ug IgG, KIF20A or BUB1 antibody; Protein A-Sepharose CL-4B beads; Western blot

binding: binds
Substance: Budding uninhibited by benzimidazole 1 (from UniProt O43683 1-1085)
